The target of the assay is human H3 receptors (Homo sapiens, UniProt Q9Y5N1). The experiment in a line: cAMP quantification assay for human H3 receptor testing. Particulars: read-out: Potency range (IC50 values); CHO-K1 cells expressing human H3 receptors; inhibition of agonist-induced decrease of cAMP; 100 nM histamine, 10 μM forskolin. How it is done:
CHO—K1 cell line expressing human H3 receptors were purchased from Euroscreen (Gosselies, Belgium, Cat. no.: ES-392-C)
Human H3 receptor-expressing cell-lines were grown in Ham's F12 [Sigma, Cat. no. N6658], supplemented with 10% FBS [Sigma, Cat. no. F9665], 400 μg/ml G418 [Sigma, Cat. no. N1876] and 250 μg/ml Zeocin [Invitrogen, Cat. no. 46-0509]) according to the protocol provided by Euroscreen.
The assay measures the ability of test compounds to inhibit Histamine receptor agonist-induced decrease of intracellular free cAMP (receptor is Gi coupled).
Specifically, a cAMP quantification assay system from DiscoveRx (cAMP XS+; Cat. no. 90-0075) was used.
For the cAMP assay, confluent cells were detached from the culture vessels with 1× trypsin-EDTA solution (Sigma), and seeded into 384-well Costar plates (white, clear bottom, Cat. no. 3707) at a density of 10,000 cells per well. Cells were seeded in a volume of 50 μl in medium without antibiotics and incubated overnight in a humidified atmosphere with 5% CO2 at 37° C. The cAMP assay was performed according to the protocol provided by DiscoveRx. […]
After the incubation with the agonist, 5 μl/well cAMP XS antibody solution was added followed by 20 μl/well Gal/EII/Lysis (1:5:19)+ED (1:1). […] The luminescence was developed for approximately three hours at room temperature and the plates were read out using a ‘BMG Novostar’ plate reader. […]

Protein sequences, listed by entry. Tags and fused reporters are not part of them.
UniProt Q9Y5N1, whole entry: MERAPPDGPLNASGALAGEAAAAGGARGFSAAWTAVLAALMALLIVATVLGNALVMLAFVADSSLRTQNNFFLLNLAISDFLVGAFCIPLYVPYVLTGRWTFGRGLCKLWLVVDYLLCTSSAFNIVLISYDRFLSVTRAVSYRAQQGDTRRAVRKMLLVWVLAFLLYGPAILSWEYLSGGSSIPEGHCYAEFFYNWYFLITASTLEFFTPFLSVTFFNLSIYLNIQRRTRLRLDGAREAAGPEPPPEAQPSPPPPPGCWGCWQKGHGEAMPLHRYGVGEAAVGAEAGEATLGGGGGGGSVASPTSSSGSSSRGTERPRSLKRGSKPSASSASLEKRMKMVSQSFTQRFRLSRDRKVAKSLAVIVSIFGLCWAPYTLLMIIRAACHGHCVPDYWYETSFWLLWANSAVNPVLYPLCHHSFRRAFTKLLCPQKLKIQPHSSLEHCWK

The structures given here were assigned with low confidence; some may be wrong.

One may read the IC50 as the point on the concentration scale where inhibition reaches its midpoint. As for `Cc1nccc(Cl)c1OC1CN(C(=O)N2CCCN(C3CCC3)CC2)C1`, the IC50 was less than 100 nM.

Source of the values: patent US8691804B2 (Evotec AG, priority 2008, dated 2014).
